Assay results from the supplement of paper PMC6411743.
± gives the standard deviation of the averaged measurements. The list shows a part of the results.

Chains of the proteins cited; added tags and fusions are not shown. Lines headed by an entry give the natural chain unless they say otherwise; changes in a name come on top.
UniProt P16949: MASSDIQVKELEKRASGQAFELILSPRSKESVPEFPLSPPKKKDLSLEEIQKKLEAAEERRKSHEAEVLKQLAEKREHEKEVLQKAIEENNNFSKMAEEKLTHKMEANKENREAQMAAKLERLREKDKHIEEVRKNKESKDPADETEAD
UniProt P08670, whole entry: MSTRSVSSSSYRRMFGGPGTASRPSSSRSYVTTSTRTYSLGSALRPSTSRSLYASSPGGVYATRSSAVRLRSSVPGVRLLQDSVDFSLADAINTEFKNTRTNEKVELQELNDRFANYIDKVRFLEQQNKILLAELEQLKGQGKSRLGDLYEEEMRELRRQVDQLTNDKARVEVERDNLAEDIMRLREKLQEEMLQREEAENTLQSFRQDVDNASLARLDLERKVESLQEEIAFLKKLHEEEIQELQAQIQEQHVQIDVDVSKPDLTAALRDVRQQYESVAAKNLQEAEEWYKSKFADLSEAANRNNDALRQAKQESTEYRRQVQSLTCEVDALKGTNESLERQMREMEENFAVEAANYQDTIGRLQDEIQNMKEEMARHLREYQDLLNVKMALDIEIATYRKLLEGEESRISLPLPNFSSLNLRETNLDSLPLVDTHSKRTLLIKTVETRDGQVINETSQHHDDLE
UniProt P08621, whole entry: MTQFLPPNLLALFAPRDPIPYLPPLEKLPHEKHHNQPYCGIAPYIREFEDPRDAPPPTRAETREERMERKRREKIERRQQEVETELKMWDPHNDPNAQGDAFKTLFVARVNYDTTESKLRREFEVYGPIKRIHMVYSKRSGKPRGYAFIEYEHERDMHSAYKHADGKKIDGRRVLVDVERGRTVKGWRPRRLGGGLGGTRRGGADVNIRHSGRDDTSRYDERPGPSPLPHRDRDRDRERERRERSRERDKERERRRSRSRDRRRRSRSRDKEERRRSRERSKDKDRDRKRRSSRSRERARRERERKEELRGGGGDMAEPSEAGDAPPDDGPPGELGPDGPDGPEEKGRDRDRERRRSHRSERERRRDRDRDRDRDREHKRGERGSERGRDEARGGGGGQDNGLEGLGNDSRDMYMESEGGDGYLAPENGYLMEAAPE
UniProt P18669: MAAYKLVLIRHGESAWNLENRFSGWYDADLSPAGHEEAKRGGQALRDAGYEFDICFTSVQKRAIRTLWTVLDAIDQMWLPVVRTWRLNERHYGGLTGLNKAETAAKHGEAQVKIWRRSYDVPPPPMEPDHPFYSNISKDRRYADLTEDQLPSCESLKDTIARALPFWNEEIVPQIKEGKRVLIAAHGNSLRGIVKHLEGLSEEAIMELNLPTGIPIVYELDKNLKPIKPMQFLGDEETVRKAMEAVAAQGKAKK
UniProt P12235: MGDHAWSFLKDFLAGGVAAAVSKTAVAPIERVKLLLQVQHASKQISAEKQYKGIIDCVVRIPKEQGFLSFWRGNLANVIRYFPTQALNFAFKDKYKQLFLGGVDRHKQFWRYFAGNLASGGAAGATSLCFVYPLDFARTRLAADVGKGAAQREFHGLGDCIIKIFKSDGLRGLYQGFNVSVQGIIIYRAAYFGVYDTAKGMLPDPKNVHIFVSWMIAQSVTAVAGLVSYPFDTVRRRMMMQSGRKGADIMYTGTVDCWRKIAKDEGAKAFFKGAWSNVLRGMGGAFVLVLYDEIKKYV
UniProt P19338, whole entry: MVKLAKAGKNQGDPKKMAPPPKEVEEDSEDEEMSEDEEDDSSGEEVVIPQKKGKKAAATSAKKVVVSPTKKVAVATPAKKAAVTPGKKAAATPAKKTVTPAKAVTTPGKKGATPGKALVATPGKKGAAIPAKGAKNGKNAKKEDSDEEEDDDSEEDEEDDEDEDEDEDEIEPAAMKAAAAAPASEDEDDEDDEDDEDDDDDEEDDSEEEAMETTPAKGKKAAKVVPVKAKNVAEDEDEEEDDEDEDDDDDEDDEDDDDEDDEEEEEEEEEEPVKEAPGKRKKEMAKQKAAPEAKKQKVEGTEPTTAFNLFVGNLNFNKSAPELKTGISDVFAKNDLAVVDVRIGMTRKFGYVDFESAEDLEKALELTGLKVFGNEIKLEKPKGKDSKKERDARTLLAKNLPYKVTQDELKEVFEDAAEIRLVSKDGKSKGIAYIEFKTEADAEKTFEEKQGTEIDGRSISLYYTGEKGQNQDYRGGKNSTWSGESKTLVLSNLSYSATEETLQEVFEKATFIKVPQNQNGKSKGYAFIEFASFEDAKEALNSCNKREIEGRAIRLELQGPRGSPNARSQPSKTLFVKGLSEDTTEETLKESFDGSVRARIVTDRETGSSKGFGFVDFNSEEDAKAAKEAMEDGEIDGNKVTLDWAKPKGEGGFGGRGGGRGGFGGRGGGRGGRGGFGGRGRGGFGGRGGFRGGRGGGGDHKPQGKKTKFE
UniProt P25705: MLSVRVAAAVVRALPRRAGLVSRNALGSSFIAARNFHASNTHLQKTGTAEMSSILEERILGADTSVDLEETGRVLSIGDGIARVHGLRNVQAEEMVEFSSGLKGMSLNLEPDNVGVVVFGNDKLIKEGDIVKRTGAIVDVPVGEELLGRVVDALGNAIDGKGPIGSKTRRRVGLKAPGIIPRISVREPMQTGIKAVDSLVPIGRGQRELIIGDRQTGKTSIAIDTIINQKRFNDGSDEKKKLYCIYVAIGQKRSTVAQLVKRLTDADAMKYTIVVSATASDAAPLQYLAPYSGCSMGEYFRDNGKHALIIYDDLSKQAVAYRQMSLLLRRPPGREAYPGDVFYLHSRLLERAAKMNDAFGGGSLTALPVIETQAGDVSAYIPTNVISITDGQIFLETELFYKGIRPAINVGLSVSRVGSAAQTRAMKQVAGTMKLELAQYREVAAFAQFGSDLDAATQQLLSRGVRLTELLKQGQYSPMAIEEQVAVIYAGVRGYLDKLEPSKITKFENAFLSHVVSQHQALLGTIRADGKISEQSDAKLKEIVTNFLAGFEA
UniProt P09382, whole entry: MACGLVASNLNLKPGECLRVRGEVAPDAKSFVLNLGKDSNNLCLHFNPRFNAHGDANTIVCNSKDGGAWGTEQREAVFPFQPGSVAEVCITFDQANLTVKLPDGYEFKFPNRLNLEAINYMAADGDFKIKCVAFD
UniProt P12429: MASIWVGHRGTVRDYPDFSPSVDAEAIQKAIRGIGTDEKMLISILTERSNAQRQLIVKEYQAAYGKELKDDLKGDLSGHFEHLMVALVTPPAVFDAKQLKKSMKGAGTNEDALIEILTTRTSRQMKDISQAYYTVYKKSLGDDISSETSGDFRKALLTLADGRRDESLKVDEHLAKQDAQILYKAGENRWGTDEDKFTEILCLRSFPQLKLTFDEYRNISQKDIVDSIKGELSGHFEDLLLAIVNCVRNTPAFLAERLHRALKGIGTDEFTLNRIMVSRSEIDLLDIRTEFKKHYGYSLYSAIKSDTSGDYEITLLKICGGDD
UniProt P17900: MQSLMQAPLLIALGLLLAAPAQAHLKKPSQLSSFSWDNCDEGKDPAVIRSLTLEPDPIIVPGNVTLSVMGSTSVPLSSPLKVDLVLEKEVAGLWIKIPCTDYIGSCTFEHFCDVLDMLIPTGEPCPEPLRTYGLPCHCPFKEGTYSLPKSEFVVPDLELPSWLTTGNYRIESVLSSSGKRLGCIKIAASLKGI
UniProt P13804: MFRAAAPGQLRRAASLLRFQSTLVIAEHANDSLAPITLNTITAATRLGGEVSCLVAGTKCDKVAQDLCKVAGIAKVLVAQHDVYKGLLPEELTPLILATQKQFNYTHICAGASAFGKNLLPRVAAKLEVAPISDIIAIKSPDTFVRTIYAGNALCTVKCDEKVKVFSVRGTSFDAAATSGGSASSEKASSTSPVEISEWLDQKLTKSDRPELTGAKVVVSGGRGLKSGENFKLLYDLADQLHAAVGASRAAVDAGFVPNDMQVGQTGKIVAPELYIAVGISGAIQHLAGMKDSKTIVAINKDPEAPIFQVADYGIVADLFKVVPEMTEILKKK
UniProt P09693, whole entry: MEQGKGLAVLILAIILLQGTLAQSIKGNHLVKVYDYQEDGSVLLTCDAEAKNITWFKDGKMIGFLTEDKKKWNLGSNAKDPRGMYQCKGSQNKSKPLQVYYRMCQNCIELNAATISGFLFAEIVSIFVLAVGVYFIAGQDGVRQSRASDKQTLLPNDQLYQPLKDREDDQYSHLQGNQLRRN
UniProt P22670: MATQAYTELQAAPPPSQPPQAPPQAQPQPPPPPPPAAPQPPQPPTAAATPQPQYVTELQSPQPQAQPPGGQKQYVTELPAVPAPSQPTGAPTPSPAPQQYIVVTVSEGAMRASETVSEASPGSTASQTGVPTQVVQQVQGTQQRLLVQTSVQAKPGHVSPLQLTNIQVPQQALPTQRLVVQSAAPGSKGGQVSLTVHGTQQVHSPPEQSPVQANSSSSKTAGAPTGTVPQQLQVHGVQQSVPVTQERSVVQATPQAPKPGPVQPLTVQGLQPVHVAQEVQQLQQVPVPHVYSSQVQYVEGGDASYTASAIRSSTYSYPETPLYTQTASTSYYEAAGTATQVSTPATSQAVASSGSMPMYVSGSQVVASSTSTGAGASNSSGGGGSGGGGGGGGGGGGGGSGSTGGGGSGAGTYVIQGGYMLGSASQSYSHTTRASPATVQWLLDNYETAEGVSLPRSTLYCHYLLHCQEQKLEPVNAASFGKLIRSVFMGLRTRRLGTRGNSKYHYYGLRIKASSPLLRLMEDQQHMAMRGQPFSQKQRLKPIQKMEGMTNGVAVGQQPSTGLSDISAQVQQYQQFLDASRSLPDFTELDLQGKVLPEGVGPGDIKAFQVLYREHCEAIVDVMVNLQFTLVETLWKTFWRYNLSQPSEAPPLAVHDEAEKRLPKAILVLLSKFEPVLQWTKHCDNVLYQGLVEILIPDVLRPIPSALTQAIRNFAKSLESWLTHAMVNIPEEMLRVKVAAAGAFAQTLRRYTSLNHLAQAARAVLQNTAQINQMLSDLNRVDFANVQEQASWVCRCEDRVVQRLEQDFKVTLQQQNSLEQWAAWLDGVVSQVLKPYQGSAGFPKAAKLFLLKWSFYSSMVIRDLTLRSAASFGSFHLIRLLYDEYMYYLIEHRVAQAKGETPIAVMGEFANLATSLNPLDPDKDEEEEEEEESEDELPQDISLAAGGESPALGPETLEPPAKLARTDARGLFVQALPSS
UniProt P18615, whole entry: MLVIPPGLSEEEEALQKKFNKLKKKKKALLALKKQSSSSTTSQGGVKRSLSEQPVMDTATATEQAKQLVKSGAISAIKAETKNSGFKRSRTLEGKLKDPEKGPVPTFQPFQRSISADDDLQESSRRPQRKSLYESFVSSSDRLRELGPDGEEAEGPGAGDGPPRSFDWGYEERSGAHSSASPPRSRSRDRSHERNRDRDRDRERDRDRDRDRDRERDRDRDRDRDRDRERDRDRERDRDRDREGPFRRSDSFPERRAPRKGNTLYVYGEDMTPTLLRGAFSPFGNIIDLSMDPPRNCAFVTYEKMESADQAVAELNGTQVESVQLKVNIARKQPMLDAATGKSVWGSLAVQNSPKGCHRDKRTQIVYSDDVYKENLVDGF
UniProt P14625, whole entry: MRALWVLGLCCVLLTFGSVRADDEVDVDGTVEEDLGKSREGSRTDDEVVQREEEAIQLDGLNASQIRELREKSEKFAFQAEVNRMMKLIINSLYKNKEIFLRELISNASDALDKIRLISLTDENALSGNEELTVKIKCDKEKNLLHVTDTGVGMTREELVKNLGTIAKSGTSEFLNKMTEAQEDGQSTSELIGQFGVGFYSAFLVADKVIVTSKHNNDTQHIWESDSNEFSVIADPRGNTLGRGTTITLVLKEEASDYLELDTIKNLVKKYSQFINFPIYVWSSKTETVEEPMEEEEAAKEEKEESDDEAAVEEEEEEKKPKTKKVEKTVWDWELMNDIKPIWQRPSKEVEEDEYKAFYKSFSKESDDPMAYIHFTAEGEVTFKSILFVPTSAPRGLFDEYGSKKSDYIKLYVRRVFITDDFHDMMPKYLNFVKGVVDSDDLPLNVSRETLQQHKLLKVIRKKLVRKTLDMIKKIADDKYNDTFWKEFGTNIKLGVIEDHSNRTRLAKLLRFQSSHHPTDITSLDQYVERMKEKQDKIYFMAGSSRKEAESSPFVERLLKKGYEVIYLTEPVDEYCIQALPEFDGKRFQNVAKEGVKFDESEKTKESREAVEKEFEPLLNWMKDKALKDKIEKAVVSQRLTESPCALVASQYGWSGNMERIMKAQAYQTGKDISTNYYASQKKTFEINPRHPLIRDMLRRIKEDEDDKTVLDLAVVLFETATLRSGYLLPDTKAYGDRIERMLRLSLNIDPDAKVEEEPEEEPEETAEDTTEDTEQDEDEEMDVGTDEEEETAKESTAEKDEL
UniProt P16150: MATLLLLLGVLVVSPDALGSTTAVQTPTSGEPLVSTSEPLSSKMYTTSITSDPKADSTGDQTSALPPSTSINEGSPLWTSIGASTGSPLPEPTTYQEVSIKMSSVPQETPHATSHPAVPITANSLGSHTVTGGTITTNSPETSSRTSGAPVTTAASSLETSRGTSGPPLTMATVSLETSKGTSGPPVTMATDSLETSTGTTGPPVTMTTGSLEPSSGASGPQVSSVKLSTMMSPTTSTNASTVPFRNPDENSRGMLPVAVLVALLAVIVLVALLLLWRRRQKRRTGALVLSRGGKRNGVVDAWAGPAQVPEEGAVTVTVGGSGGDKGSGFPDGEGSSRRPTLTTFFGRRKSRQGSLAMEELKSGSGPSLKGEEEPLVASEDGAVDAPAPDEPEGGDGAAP

Compound: Nc1nc2c(ncn2[C@@H]2O[C@H](COP(=O)(O)OP(=O)(O)OP(=O)(O)O)[C@@H](O)[C@H]2O)c(=O)[nH]1 [guanosine triphosphate]
Assay: NP40-soluble protein abundance relative to vehicle (solubility fold change) (ratio); higher = more soluble protein in presence of GTP
In short: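 Eight concentrations, 0.1 to 10 mM, were tested on Jurkat crude lysate for 10 min at room temperature and then 3 min at 37 °C, in three independent experiments. The lysate was solubilised with 0.8% NP40 and benzonase, ultracentrifuged, and the supernatant TMT-labelled for LC-MS/MS. Each value is the fold change against the detergent-processed vehicle in its own replicate, from vsn-normalised intensities.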

Target	NP40-soluble protein abundance (concentration: 0.1mM)	NP40-soluble protein abundance (concentration: 0.5mM)	NP40-soluble protein abundance (concentration: 1mM)	NP40-soluble protein abundance (concentration: 2mM)	NP40-soluble protein abundance (concentration: 4mM)	NP40-soluble protein abundance (concentration: 6mM)	NP40-soluble protein abundance (concentration: 8mM)	NP40-soluble protein abundance (concentration: 10mM)
STMN1 (UniProt P16949)	0.911 ± 0.0092	0.899 ± 0.048	0.994 ± 0.014	0.909 ± 0.042	0.85 ± 0.069	0.935 ± 0.1	0.971 ± 0.089	0.995 ± 0.041
VIM (UniProt P08670)	0.9239 ± 0.0077	0.926 ± 0.025	1.01 ± 0.027	0.976 ± 0.028	0.959 ± 0.026	0.962 ± 0.011	0.968 ± 0.042	0.94 ± 0.047
UniProt P20290 and related entries	0.907 ± 0.069	0.875 ± 0.1	0.991 ± 0.056	0.966 ± 0.11	1.02 ± 0.095	1.05 ± 0.12	1.06 ± 0.12	1.08 ± 0.081
UniProt P13473-2	0.893 ± 0.039	0.879 ± 0.044	0.863 ± 0.028	0.872 ± 0.038	0.871 ± 0.027	0.845 ± 0.032	0.83 ± 0.041	0.905 ± 0.043
UniProt P21964 and related entries	1 ± 0.051	0.978 ± 0.06	0.951 ± 0.066	0.933 ± 0.071	0.948 ± 0.072	0.895 ± 0.082	0.911 ± 0.13	0.865 ± 0.092
ACAT1 (UniProt P24752)	0.954 ± 0.049	0.995 ± 0.046	0.955 ± 0.057	0.918 ± 0.056	0.912 ± 0.045	0.931 ± 0.043	0.938 ± 0.047	0.919 ± 0.051
SNRNP70 (UniProt P08621)	1.02 ± 0.034	1.182 ± 0.0083	1.23 ± 0.022	1.29 ± 0.049	1.39 ± 0.11	1.54 ± 0.13	1.66 ± 0.19	1.69 ± 0.17
PGAM1 (UniProt P18669)	0.946 ± 0.072	0.946 ± 0.06	0.936 ± 0.076	0.888 ± 0.072	0.889 ± 0.088	0.88 ± 0.069	0.88 ± 0.087	0.856 ± 0.075
SLC25A4 (UniProt P12235)	0.893 ± 0.13	0.972 ± 0.2	0.888 ± 0.11	0.987 ± 0.14	0.978 ± 0.19	0.97 ± 0.19	0.898 ± 0.15	0.96 ± 0.12
UniProt P14735 and related entries	1.03 ± 0.071	1.07 ± 0.076	0.933 ± 0.027	0.969 ± 0.08	0.939 ± 0.069	0.956 ± 0.05	0.888 ± 0.03	0.861 ± 0.058
ERCC3 (UniProt P19447)	0.994 ± 0.035	1.04 ± 0.016	1.05 ± 0.024	1.03 ± 0.025	1.03 ± 0.045	1.12 ± 0.026	1.09 ± 0.045	1.03 ± 0.021
UniProt P19338 and related entries	0.907 ± 0.1	0.857 ± 0.098	0.91 ± 0.09	0.885 ± 0.12	1.09 ± 0.12	1.23 ± 0.12	1.39 ± 0.08	1.41 ± 0.094
EEF2 (UniProt P13639)	0.97 ± 0.02	0.985 ± 0.038	0.874 ± 0.013	0.845 ± 0.049	0.843 ± 0.034	0.845 ± 0.025	0.814 ± 0.035	0.806 ± 0.068
UniProt P25705 and related entries	0.981 ± 0.022	1.04 ± 0.057	0.998 ± 0.062	1.01 ± 0.087	0.986 ± 0.088	1.03 ± 0.11	1.01 ± 0.11	0.995 ± 0.098
SLC2A1 (UniProt P11166)	0.925 ± 0.04	0.895 ± 0.024	0.918 ± 0.016	0.94014 ± 0.00094	0.933 ± 0.031	0.917 ± 0.021	0.894 ± 0.033	0.883 ± 0.01
LGALS1 (UniProt P09382)	0.889 ± 0.036	0.886 ± 0.037	0.885 ± 0.042	0.789 ± 0.055	0.813 ± 0.11	0.822 ± 0.067	0.821 ± 0.03	0.809 ± 0.055
UniProt P25786 and related entries	1.02 ± 0.036	1.04 ± 0.085	1.07 ± 0.085	1.08 ± 0.13	1.1 ± 0.14	1.11 ± 0.15	1.1 ± 0.15	1.07 ± 0.16
UniProt P12429 and related entries	0.981 ± 0.1	0.961 ± 0.066	0.968 ± 0.027	0.875 ± 0.025	0.921 ± 0.051	0.859 ± 0.03	0.891 ± 0.045	0.87 ± 0.055
GM2A (UniProt P17900)	0.851 ± 0.015	0.931 ± 0.022	0.876 ± 0.013	0.923 ± 0.1	0.853 ± 0.042	0.859 ± 0.013	0.856 ± 0.12	0.927 ± 0.067
ETFA (UniProt P13804)	0.965 ± 0.026	0.949 ± 0.028	0.93 ± 0.03	0.889 ± 0.038	0.886 ± 0.038	0.882 ± 0.04	0.889 ± 0.027	0.87 ± 0.047
UniProt P09693 and related entries	0.874 ± 0.059	0.882 ± 0.057	0.913 ± 0.058	0.888 ± 0.1	0.869 ± 0.076	0.905 ± 0.099	0.859 ± 0.092	0.9 ± 0.071
RPS3 (UniProt P23396)	1.01 ± 0.1	1 ± 0.14	0.983 ± 0.18	0.954 ± 0.23	0.879 ± 0.23	0.828 ± 0.22	0.749 ± 0.17	0.782 ± 0.21
RFX1 (UniProt P22670)	1 ± 0.052	1.02 ± 0.061	0.981 ± 0.13	0.99 ± 0.086	0.975 ± 0.094	0.968 ± 0.11	0.965 ± 0.057	0.978 ± 0.068
UniProt P15923-2|P15923 and related entries	0.914 ± 0.035	0.937 ± 0.066	0.979 ± 0.045	0.935 ± 0.085	0.914 ± 0.12	0.943 ± 0.1	0.955 ± 0.053	0.972 ± 0.082
UniProt P11274 and related entries	1.05 ± 0.058	1.06 ± 0.064	0.986 ± 0.067	1 ± 0.064	1.03 ± 0.068	0.972 ± 0.053	0.967 ± 0.021	0.919 ± 0.035
UniProt P18615	0.954 ± 0.11	1 ± 0.13	0.962 ± 0.13	0.956 ± 0.12	0.959 ± 0.13	0.957 ± 0.13	0.963 ± 0.1	0.971 ± 0.12
RPL13 (UniProt P26373)	0.952 ± 0.062	1.05 ± 0.043	1.1 ± 0.13	1.03 ± 0.16	0.937 ± 0.25	0.925 ± 0.23	0.797 ± 0.22	0.962 ± 0.26
TCEA1 (UniProt P23193)	0.951 ± 0.11	0.921 ± 0.091	0.953 ± 0.1	0.881 ± 0.11	0.89 ± 0.12	0.898 ± 0.11	0.935 ± 0.12	0.888 ± 0.087
HSP90B1 (UniProt P14625)	0.96 ± 0.015	0.99 ± 0.02	0.946 ± 0.029	0.916 ± 0.022	0.901 ± 0.034	0.922 ± 0.025	0.908 ± 0.021	0.888 ± 0.03
SPN (UniProt P16150)	0.771 ± 0.084	0.704 ± 0.11	0.744 ± 0.14	0.736 ± 0.12	0.771 ± 0.13	0.738 ± 0.15	0.676 ± 0.1	0.785 ± 0.1

Two entries picked at random from the list so far:
Target	NP40-soluble protein abundance (concentration: 0.1mM)	NP40-soluble protein abundance (concentration: 0.5mM)	NP40-soluble protein abundance (concentration: 1mM)	NP40-soluble protein abundance (concentration: 2mM)	NP40-soluble protein abundance (concentration: 4mM)	NP40-soluble protein abundance (concentration: 6mM)	NP40-soluble protein abundance (concentration: 8mM)	NP40-soluble protein abundance (concentration: 10mM)
STMN1 (UniProt P16949)	0.911 ± 0.0092	0.899 ± 0.048	0.994 ± 0.014	0.909 ± 0.042	0.85 ± 0.069	0.935 ± 0.1	0.971 ± 0.089	0.995 ± 0.041
UniProt P18615	0.954 ± 0.11	1 ± 0.13	0.962 ± 0.13	0.956 ± 0.12	0.959 ± 0.13	0.957 ± 0.13	0.963 ± 0.1	0.971 ± 0.12
